In PMC5592244 one finds binding data, which are given here for 2 substances.

Protein sequences, listed by entry. Tags and fused reporters are not part of them.
UniProt O60566: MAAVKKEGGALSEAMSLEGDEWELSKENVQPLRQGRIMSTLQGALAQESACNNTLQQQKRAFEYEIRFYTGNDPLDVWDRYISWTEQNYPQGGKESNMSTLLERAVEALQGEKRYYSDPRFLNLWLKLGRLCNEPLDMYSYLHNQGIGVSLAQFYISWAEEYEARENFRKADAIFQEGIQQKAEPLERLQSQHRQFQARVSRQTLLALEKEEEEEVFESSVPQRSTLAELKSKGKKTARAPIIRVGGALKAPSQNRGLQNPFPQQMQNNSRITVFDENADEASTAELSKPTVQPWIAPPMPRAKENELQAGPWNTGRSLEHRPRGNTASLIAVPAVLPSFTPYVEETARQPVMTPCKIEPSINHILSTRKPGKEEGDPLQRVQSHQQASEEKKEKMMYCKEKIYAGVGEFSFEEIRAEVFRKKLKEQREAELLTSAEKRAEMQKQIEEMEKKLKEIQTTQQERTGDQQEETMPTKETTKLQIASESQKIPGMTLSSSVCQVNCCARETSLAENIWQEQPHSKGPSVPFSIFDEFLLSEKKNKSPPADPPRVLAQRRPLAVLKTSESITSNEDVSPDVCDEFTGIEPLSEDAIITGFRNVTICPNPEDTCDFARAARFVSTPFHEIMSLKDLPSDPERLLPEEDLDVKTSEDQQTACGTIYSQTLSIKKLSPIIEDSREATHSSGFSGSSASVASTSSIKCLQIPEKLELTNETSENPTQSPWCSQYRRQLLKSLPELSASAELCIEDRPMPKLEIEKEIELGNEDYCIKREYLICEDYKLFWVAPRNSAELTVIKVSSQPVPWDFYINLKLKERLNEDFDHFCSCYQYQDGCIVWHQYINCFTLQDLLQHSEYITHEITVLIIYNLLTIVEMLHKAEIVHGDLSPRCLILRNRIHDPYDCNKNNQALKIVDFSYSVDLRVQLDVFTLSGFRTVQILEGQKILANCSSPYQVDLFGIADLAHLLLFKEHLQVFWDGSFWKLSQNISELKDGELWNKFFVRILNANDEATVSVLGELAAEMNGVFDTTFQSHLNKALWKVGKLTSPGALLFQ
UniProt O43683: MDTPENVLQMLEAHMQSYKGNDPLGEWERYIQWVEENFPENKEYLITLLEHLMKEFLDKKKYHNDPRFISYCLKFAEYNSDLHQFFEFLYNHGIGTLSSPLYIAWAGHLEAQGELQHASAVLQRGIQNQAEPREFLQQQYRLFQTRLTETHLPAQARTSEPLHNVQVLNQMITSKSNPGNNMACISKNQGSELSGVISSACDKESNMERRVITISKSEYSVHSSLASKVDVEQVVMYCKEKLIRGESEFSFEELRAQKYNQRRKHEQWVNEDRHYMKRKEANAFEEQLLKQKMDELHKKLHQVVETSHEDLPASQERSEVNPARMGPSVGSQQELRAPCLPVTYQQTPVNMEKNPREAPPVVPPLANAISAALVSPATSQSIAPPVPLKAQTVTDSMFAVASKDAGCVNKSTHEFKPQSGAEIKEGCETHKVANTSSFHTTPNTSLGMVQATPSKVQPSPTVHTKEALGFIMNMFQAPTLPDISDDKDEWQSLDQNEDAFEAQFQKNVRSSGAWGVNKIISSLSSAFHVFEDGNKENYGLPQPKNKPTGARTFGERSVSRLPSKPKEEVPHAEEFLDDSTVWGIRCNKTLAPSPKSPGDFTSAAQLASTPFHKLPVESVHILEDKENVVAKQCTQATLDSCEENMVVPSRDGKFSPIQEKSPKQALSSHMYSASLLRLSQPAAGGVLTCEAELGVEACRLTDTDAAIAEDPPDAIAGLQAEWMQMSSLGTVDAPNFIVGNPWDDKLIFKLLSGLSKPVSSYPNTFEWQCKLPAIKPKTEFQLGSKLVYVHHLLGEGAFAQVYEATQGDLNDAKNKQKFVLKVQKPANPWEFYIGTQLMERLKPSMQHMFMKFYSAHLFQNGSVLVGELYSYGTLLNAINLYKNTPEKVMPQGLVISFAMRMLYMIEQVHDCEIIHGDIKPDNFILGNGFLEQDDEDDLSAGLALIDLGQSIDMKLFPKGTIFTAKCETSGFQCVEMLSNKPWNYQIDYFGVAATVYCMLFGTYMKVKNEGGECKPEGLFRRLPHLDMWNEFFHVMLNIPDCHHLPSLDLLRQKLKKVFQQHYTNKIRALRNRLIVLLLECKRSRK

These are yes or no findings as the source states them, for the method shown. In cells and extracts the contact can be indirect. A yes stands for co-enrichment or nearness to the bait. Other partners may have been found.

The assay concerns the target FLAG-UBR5-CS (catalytically dead UBR5, C2768S) (human) (UniProt O95071). The experiment in a line: affinity purification with mass spectrometry; FLAG-tagged UBR5 baits in LiCl-stimulated HEK293T cells; lysis buffer 20 mM Tris-HCl pH 7.4, 100 mM NaCl, 10% glycerol, 0.2% Triton X-100; Flag affinity gel 2 hr at 4°C; eluted with 3xFlag-Peptide; LC-MS/MS.

In the case of “BUB1β (endogenous, HEK293T) (from UniProt O60566 1-1050)”, the binding result is given as “binds”.

With “BUB1 (endogenous, HEK293T) (from UniProt O43683 1-1085)”, the binding entry was “binds”.
